The source of these data is the supplement of paper PMC12819154, “High-throughput peptide-centric local stability assay extends protein–ligand identification to membrane proteins, tissues and bacteria” (Nature Structural & Molecular Biology, 2025).

Protein sequences, listed by entry. Tags and fused reporters are not part of them. Lines headed by an entry give the natural chain unless they say otherwise; changes in a name come on top.
UniProt Q9NP81: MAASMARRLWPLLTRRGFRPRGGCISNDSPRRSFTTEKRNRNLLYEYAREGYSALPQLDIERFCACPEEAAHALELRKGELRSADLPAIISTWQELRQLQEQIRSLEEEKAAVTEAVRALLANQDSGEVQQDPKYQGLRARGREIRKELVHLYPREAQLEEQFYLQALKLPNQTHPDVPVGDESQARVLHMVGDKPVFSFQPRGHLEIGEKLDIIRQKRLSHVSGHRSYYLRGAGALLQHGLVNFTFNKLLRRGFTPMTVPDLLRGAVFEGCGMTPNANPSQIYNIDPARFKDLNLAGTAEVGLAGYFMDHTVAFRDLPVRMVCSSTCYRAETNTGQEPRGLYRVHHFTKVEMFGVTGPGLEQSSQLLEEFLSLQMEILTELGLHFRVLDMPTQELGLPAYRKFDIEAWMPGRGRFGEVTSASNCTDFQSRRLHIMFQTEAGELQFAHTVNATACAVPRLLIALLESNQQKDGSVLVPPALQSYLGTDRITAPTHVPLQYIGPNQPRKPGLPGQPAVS
UniProt Q9NPI8: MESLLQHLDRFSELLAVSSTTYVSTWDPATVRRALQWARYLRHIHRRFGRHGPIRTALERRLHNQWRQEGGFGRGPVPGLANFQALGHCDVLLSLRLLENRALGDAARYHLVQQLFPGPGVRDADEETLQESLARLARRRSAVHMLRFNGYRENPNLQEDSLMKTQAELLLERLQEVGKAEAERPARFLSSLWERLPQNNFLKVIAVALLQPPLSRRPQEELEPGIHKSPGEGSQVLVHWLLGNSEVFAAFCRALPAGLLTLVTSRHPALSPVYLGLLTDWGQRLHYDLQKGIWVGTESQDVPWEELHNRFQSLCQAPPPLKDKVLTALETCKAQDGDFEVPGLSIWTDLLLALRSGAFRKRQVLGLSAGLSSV
UniProt Q9H9E1: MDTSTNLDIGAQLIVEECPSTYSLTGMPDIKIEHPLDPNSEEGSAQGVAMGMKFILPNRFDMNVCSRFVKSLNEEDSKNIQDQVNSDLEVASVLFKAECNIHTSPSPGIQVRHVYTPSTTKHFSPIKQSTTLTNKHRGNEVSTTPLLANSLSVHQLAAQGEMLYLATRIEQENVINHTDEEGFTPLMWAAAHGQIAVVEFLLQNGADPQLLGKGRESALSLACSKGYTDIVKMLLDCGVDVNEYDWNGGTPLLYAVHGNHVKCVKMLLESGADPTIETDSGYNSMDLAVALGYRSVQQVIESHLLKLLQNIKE
UniProt Q9HCM4: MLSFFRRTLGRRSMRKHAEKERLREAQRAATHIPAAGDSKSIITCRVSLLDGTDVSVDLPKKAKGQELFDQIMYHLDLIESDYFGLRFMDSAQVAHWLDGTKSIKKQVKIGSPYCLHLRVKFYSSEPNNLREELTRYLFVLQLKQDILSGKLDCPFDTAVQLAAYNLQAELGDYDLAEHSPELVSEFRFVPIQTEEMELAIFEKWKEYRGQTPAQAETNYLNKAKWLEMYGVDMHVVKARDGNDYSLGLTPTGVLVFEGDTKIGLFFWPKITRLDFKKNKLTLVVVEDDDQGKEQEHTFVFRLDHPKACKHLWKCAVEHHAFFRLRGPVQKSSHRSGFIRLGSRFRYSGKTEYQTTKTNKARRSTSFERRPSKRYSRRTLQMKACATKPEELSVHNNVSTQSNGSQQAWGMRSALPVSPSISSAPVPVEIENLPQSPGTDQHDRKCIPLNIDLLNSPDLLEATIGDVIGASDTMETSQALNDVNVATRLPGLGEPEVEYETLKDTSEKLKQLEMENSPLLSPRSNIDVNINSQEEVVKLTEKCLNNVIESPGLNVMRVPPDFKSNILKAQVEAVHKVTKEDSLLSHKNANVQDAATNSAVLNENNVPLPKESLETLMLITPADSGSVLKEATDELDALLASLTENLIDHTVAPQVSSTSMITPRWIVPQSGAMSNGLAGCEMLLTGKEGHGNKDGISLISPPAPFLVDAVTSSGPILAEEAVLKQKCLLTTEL
UniProt Q9H9V9: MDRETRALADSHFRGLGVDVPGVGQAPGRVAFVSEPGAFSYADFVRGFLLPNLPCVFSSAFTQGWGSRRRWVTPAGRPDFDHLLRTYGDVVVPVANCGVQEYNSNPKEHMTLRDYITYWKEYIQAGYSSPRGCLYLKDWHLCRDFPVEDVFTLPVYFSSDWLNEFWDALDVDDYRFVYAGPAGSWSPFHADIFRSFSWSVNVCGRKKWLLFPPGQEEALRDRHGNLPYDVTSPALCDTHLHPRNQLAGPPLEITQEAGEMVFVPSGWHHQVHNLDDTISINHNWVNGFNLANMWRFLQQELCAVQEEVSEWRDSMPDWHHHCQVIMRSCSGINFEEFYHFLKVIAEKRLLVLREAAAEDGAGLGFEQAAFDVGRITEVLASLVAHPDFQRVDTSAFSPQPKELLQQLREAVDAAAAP
UniProt Q9HD20: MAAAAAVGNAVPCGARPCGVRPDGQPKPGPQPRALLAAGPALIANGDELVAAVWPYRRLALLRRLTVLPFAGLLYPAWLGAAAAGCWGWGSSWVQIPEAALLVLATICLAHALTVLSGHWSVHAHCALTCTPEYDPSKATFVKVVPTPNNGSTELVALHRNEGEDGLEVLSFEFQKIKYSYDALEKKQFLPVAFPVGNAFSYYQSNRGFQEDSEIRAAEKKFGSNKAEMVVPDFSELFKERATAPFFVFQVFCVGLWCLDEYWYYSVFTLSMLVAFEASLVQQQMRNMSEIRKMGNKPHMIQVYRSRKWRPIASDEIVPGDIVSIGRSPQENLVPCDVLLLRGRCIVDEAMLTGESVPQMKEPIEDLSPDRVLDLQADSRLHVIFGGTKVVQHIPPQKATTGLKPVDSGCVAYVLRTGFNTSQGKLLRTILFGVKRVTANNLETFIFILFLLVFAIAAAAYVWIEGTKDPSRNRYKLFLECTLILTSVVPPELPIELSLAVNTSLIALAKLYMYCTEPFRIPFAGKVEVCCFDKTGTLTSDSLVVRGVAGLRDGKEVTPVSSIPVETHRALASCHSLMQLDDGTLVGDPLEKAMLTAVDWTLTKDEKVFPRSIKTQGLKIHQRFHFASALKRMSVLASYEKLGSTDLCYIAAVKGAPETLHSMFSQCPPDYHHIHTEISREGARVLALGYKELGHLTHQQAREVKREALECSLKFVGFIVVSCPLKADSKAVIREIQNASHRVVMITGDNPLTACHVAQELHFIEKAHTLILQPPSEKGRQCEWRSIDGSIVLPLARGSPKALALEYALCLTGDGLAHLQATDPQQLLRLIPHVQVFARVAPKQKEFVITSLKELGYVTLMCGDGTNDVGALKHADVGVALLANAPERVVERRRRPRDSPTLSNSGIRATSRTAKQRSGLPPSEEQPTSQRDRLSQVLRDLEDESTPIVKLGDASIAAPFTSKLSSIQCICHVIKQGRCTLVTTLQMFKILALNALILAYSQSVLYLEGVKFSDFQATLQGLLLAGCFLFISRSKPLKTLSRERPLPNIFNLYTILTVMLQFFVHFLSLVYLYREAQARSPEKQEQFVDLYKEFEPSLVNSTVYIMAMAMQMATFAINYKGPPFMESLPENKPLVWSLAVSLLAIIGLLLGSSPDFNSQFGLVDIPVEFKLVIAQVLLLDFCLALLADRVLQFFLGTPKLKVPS
UniProt Q9NP64: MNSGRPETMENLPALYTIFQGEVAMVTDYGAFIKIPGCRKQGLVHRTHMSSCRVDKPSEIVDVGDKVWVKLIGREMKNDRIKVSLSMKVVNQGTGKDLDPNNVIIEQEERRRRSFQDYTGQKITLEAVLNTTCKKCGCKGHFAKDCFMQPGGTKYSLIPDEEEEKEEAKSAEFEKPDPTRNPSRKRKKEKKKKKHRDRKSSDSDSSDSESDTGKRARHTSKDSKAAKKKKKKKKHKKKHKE
UniProt Q9H4Z3: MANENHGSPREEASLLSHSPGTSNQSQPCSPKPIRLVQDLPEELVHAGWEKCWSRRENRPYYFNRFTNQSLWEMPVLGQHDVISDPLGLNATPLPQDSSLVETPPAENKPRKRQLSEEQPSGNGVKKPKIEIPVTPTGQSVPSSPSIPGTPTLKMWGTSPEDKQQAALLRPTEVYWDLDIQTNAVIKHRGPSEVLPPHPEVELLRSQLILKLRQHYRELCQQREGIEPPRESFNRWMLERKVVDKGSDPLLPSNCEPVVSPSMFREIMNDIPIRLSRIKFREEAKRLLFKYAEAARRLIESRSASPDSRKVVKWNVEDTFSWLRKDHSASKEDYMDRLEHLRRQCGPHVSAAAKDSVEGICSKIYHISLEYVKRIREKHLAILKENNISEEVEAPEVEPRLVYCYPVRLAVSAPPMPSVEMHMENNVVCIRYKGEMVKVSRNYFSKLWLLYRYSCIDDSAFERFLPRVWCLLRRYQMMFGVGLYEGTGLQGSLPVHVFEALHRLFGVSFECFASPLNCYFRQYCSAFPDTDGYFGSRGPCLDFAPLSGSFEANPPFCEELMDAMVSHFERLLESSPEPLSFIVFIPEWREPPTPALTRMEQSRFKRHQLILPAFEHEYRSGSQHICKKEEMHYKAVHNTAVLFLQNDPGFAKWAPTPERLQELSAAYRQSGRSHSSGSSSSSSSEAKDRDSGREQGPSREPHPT
UniProt Q9NQB0, whole entry: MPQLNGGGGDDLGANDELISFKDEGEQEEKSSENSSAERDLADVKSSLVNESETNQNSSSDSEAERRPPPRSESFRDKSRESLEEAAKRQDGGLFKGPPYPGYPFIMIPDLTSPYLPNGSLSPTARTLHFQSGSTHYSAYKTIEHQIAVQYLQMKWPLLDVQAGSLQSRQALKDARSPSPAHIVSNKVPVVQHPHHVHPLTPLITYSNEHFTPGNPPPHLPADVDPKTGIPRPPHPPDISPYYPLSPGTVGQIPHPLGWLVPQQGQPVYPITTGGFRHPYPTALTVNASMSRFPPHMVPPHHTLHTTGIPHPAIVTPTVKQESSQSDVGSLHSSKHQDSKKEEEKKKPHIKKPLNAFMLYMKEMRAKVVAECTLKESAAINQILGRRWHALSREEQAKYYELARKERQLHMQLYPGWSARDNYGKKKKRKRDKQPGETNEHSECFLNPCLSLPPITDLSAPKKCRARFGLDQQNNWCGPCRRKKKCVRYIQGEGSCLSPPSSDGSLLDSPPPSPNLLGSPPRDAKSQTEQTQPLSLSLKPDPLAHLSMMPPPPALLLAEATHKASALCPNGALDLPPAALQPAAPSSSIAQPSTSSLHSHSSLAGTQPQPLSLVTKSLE
UniProt Q9H967: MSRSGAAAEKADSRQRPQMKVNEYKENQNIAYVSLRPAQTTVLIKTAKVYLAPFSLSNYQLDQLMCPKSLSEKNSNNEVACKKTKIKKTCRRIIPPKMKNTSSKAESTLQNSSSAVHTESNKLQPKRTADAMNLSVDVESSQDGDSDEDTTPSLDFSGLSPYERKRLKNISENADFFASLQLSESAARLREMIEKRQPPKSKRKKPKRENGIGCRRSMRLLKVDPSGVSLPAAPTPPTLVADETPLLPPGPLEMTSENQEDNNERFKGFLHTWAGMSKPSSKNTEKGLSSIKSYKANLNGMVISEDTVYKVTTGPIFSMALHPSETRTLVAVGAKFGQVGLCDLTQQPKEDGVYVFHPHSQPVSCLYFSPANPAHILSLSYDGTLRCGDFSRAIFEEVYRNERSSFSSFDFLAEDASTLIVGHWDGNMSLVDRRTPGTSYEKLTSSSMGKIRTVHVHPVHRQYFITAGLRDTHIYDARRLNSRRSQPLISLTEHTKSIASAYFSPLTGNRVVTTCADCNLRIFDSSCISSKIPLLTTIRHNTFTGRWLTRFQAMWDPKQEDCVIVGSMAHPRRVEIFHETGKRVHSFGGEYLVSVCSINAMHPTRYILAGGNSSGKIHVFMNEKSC

The other results are listed elsewhere or left out. Small differences around the control level are noise.

Compound in the test: CN[C@@H]1C[C@H]2O[C@@](C)([C@@H]1OC)n1c3ccccc3c3c4c(c5c6ccccc6n2c5c31)C(=O)NC4 [staurosporine]
Kind of test: log2 fold change of tryptic peptide abundance, ligand vs vehicle (limited proteolysis) (log2 ratio); higher = more trypsin-susceptible (destabilized). The note with it: ligand concentration: 20 uM; sample: K562 cleared lysate; digestion: 4 min, 22 C (HT-PELSA RT4min, Orbitrap Astral).
For “SARS2 (peptide sequence: LPNQTHPDVPVGDESQAR, peptide start residue: 170) (UniProt Q9NP81)”, the log2 fold change was determined as 0.437.
Next, “FANCF (peptide sequence: YHLVQQLFPGPGVR, peptide start residue: 109) (UniProt Q9NPI8)”: 0.262; “ANKRA2 (peptide sequence: AECNIHTSPSPGIQVR, peptide start residue: 97) (UniProt Q9H9E1)”: -0.122; “EPB41L5 (peptide sequence: CLNNVIESPGLNVMR, peptide start residue: 543) (UniProt Q9HCM4)”: -0.647.
For the target “JMJD4 (peptide sequence: WVTPAGRPDFDHLLR, peptide start residue: 117) (UniProt Q9H9V9)”, the log2 fold change is 0.207.
Consider “ATP13A1 (peptide sequence: DSPTLSNSGIR, peptide start residue: 898) (UniProt Q9HD20)”, for which the log2 fold change was found to be 0.172.
On to “ZCCHC17 (peptide sequence: SAEFEKPDPTRNPSR, peptide start residue: 170) (UniProt Q9NP64)”, for which the log2 fold change is -0.132.
Turning to “PCIF1 (peptide sequence: QCGPHVSAAAK, peptide start residue: 344) (UniProt Q9H4Z3)”, the log2 fold change came out at 0.642.
“UniProt Q9NQB0 (peptide sequence: QLHMQLYPGWSAR, peptide start residue: 357)”: the log2 fold change is -0.158.
Regarding “WDR76 (peptide sequence: NSNNEVACK, peptide start residue: 74) (UniProt Q9H967)”, the log2 fold change was determined as 0.8.
